Data: patent US20150185222A1 (TORAY INDUSTRIES, published 2015)
No constants are given. Whether binding was seen depends on the method and setting. Binding can be weak; no strength is given.

Biological target: cat CAPRIN-1 in cat breast cancer tissues (cat)
Assay: immunohistochemical staining of frozen cat breast cancer tissue sections, 10 µg/ml antibody

B1: mouse anti-human CAPRIN-1 monoclonal antibody #14 (antibody, V domains shown)
VH: GGGLVQPGGSMRLSCVASGFTFSNSWFNWVRQSPEKGLEWVAEIRLTSDNYAIYYAESVKGRFTISRDDSKSSVYLQMNNLRAEDTGIYYCTRPETARATFAYWGQGTTVTVSS
VL: DVLMTQTPLSLPVSLGDQASISCRSSQSIVHSNGNTYLEWYLQKPGQSPKVLIYKVFNRFSGVPDRFSGSGSGTDFTLKISRVEAEDLGVYYCFQGSHVPRTFGGGTKLNQTG
With B1 the binding was “binds”.
